The subject of series [1] is IgE. The series is described as follows: competition with a labelled probe. The conditions noted are these: dT7 replaced by 3-methylisoxanthopterin (3MI); IgE control showed no competition of binding to aptamer array; purified native protein; label: 3MI at position 7; folded or branched DNA; variant of TBA 15-mer.
In series [2] the test system is alpha-thrombin (Homo sapiens). The series is described as follows: binding assay. The conditions noted are these: CITED published apparent Kd; purified native protein; folded or branched DNA.

The exact form of at least one protein or probe is not confirmed. For some assays here: No signal at the amounts used counts as a negative.

Regarding “GGTTGGTGTGGTTGG [3MI-TBA signaling aptamer on DNA tile array]”, in series [1], the binding result is given as “no binding”.

For GGTTGGTGTGGTTGG [TBA 15-mer], the Kd in series [2] was 0.01 µM.

Source of the values: patent US20100009868.
